In the supplement of paper PMC10849652:
The other results are listed elsewhere or left out.

By UniProt entry, the sequences of proteins in these tests, tags left out. Where a name states a change or a piece, a line headed by the entry shows the natural chain unless it says otherwise.
UniProt Q66K89: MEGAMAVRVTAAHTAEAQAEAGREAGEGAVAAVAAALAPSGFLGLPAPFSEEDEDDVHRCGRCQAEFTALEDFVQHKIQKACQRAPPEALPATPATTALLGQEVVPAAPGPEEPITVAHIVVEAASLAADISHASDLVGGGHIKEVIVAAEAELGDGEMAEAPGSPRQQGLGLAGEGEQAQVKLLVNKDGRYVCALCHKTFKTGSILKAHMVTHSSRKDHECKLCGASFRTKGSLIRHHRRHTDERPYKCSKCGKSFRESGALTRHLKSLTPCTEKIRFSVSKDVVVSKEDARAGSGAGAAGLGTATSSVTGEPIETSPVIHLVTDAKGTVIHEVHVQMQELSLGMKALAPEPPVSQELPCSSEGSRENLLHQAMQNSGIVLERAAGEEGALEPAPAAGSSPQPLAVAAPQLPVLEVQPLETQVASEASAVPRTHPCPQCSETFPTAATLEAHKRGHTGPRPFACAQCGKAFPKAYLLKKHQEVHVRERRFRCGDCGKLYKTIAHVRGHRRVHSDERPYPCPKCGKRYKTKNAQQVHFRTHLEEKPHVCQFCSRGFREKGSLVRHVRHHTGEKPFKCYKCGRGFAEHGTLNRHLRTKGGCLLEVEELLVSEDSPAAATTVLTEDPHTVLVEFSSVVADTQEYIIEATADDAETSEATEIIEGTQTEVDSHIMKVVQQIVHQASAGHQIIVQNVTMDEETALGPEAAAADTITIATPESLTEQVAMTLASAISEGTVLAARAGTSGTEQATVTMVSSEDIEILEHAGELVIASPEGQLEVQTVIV
UniProt Q5VYK3, whole entry, looked up: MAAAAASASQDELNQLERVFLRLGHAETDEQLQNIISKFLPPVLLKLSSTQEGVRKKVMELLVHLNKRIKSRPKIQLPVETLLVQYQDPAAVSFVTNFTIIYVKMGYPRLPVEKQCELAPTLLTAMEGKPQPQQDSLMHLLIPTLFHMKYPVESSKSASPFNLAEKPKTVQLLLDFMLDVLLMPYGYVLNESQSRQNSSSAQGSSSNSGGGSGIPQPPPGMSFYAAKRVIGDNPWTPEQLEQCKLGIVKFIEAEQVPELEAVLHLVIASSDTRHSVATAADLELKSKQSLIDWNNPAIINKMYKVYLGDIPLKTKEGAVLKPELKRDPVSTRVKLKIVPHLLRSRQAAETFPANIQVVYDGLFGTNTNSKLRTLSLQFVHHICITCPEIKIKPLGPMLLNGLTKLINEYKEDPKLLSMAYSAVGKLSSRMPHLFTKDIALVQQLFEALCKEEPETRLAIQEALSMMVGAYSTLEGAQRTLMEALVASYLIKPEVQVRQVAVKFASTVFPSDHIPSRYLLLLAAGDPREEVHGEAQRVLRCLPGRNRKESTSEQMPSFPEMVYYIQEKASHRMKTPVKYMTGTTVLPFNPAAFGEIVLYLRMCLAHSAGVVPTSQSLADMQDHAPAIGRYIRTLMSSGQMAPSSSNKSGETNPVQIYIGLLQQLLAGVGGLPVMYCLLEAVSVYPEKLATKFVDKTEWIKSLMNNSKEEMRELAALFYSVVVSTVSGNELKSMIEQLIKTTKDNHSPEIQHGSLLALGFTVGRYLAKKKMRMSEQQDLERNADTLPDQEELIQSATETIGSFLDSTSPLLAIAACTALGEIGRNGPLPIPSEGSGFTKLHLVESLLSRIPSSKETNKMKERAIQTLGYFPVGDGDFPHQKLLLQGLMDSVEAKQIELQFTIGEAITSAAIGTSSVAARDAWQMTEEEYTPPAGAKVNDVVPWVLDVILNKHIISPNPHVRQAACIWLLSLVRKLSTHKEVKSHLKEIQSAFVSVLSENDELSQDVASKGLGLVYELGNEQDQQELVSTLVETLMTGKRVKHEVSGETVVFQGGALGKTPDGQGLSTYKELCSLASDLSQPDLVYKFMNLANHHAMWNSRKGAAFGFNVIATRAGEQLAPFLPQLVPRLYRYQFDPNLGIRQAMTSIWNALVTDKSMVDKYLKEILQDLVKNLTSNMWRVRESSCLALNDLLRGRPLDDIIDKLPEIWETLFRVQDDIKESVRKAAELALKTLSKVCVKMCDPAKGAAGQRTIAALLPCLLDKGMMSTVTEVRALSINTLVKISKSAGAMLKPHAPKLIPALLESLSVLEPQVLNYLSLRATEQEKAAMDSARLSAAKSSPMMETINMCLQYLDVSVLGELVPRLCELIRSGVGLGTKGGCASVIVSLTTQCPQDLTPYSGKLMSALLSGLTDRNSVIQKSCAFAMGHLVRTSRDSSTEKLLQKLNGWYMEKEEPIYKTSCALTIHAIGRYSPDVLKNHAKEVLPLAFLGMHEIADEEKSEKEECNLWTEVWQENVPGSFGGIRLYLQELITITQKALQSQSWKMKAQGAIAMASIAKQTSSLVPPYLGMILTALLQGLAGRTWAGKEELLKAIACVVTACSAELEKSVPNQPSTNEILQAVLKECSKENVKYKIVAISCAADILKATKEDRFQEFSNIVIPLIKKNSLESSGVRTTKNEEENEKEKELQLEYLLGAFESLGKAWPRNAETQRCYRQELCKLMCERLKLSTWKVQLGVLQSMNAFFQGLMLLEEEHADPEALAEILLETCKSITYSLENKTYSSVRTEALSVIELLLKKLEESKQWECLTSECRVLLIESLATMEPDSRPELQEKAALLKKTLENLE
UniProt Q96G04: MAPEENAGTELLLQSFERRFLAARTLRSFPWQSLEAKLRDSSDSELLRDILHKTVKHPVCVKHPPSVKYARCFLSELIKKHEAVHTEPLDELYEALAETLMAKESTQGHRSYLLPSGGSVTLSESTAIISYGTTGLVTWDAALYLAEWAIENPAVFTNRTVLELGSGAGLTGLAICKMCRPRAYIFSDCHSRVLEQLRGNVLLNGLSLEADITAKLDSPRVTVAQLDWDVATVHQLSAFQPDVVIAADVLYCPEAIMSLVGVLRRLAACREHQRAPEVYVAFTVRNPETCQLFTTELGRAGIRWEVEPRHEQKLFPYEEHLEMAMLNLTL
UniProt O14640: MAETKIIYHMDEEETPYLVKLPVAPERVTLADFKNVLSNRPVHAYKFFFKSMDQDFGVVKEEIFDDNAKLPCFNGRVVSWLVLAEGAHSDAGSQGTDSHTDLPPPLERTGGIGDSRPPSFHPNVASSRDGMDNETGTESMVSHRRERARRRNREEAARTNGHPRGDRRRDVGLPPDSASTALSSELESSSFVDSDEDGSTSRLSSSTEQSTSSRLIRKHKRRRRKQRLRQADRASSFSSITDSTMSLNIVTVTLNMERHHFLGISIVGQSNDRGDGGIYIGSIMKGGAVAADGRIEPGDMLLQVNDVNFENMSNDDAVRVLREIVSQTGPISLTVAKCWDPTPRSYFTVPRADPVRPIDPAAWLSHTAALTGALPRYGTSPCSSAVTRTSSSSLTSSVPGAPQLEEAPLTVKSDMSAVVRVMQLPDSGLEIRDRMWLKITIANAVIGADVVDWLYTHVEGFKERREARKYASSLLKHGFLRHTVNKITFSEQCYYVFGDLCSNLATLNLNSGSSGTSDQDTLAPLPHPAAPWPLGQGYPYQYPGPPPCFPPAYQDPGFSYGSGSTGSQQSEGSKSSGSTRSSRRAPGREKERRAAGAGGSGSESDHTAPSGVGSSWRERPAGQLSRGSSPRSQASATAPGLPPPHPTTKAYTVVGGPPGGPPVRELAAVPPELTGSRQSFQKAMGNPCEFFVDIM
UniProt Q6UX65: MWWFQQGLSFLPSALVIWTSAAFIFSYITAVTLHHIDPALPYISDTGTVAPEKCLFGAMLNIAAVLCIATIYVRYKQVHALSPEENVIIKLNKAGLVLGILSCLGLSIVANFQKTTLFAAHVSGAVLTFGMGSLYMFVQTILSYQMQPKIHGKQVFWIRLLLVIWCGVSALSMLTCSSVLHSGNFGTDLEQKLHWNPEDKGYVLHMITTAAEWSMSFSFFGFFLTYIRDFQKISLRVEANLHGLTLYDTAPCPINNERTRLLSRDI
UniProt Q14195, whole entry, looked up: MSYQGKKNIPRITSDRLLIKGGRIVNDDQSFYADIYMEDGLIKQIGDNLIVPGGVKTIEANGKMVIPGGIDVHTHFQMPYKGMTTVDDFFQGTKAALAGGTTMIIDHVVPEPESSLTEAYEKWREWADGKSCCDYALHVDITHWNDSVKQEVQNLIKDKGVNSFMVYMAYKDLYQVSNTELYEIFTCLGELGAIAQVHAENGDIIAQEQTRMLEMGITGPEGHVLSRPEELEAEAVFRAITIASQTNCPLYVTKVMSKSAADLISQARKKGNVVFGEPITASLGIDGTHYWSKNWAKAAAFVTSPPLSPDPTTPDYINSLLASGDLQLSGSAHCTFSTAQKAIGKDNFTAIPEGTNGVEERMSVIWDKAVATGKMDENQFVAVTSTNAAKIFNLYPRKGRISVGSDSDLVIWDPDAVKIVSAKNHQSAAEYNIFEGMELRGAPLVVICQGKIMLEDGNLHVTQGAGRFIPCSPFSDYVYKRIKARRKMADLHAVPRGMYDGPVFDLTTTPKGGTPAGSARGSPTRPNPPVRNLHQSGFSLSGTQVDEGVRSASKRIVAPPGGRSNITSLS
UniProt Q6XUX3: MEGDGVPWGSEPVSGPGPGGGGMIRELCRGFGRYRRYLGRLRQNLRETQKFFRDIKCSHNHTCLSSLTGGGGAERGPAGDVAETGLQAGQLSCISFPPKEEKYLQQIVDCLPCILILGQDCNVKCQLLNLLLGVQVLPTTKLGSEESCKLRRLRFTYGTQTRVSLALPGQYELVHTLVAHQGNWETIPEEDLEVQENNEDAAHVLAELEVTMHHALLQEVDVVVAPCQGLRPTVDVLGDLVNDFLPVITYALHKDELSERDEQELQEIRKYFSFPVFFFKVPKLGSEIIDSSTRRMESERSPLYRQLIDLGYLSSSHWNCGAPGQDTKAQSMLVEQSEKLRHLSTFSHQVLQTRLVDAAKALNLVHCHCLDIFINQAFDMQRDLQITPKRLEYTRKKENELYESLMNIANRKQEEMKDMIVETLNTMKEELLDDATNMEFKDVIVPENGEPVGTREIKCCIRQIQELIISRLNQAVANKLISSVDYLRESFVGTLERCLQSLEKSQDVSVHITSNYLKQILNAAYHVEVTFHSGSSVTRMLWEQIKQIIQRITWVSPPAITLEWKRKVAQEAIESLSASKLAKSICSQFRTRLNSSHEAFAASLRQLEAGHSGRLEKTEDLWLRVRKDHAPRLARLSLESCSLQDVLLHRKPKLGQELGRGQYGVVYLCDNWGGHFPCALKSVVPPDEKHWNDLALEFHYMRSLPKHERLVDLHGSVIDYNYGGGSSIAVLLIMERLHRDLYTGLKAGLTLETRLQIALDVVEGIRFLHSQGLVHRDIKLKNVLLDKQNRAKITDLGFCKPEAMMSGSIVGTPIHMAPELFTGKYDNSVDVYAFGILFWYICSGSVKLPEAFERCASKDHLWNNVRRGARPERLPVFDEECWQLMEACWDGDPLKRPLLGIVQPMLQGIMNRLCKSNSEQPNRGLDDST
UniProt Q8TCX1: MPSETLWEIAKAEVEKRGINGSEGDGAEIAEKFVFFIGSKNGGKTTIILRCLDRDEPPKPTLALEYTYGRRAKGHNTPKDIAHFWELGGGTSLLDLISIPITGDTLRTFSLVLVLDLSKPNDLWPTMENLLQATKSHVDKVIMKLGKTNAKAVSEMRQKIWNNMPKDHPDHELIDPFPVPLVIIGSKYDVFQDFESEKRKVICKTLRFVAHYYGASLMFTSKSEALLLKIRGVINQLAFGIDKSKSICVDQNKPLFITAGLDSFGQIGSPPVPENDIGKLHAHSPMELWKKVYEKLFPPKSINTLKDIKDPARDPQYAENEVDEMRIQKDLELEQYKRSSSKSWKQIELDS
UniProt P51808: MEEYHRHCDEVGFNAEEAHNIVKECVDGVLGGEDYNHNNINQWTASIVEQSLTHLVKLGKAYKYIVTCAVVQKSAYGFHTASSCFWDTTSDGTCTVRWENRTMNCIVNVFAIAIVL
UniProt A8K855: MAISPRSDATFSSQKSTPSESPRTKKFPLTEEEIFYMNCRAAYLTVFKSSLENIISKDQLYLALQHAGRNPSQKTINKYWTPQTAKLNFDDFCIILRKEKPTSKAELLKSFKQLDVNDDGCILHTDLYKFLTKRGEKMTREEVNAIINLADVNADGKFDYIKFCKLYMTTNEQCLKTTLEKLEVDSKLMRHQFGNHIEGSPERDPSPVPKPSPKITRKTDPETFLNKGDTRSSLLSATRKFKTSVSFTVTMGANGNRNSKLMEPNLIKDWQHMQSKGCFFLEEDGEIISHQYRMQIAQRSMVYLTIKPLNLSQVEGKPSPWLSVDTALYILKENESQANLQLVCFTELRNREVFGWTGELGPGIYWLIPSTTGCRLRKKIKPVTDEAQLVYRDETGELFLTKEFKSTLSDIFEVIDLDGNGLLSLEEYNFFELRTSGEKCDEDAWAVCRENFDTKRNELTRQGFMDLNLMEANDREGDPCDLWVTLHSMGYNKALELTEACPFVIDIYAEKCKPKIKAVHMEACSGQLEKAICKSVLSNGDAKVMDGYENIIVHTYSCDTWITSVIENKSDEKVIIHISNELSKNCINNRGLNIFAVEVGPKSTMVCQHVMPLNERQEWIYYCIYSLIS

Columns and labels:
Assay in all cases: log2 fold change, soluble protein after heating vs DMSO (PISA); higher = thermal stabilisation; K562 lysate, 10 uM; active = over 0.2 and 3.5 SD of the protein, either way, in both replicates (recomputed)
vemurafenib = compound: CCCS(=O)(=O)Nc1ccc(F)c(C(=O)c2c[nH]c3ncc(-c4ccc(Cl)cc4)cc23)c1F [vemurafenib]
Summary of the method: (§1)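 A 30 min treatment with 10 μM compound was applied to crude K562 extract at 1 mg/mL protein in PBS pH 7.4 with 1 mM MgCl2. Heating for 3 min spanned 48°C-58°C, after which aliquots were pooled, adjusted to 0.5% NP-40 at 4°C and spun at 21,000xg for 90 min. TMTpro 16plex LC-MS/MS of the supernatant, with channel sums equalised, gave values recorded as log-two fold change in thermal stability against solvent controls, from duplicates.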

[1] = compound: CCCS(=O)(=O)Nc1ccc(F)c(C(=O)c2c[nH]c3ncc(Cl)cc23)c1F
Summary of the method: as §1

barasertib = compound: CCN(CCCOc1ccc2c(Nc3cc(CC(=O)Nc4cccc(F)c4)[nH]n3)ncnc2c1)CCOP(=O)(O)O [barasertib]
Summary of the method: as §1

volasertib = compound: CC[C@@H]1C(=O)N(C)c2cnc(Nc3ccc(C(=O)N[C@H]4CC[C@H](N5CCN(CC6CC6)CC5)CC4)cc3OC)nc2N1C(C)C [volasertib]
Summary of the method: as §1

[2] = compound: CCn1c(C(=O)N(C2CC2)C2CC2)cc2c3c(ncn3C)c(Nc3cc(C)n(C)n3)nc21
Summary of the method: as §1

[3] = compound: CCn1cc(-c2ccnc3[nH]c(-c4cccc(CN(C)C)c4)cc23)c(-c2ccc(NC(=O)N(C)C)cc2)n1
Summary of the method: as §1

[4] = compound: CN1CCC(CNc2ccc3ncc(-c4cccc(OC(F)(F)F)c4)n3n2)CC1
Summary of the method: as §1

saracatinib = compound: CN1CCN(CCOc2cc(OC3CCOCC3)c3c(Nc4c(Cl)ccc5c4OCO5)ncnc3c2)CC1 [saracatinib]
Summary of the method: as §1

sotrastaurin = compound: CN1CCN(c2nc(C3=C(c4c[nH]c5ccccc45)C(=O)NC3=O)c3ccccc3n2)CC1 [sotrastaurin]
Summary of the method: as §1

alvocidib = compound: CN1CC[C@H](c2c(O)cc(O)c3c(=O)cc(-c4ccccc4Cl)oc23)[C@H](O)C1 [alvocidib]
Summary of the method: as §1

Tubastatin A = compound: CN1CCc2c(c3ccccc3n2Cc2ccc(C(=O)NO)cc2)C1 [Tubastatin A]
Summary of the method: as §1

[5] = compound: CNC(=O)C1=CC=CC=C1NC2=NC(=NC=C2Cl)NC3=C(C=C(C=C3)N4CCOCC4)OC
Summary of the method: as §1

defactinib = compound: CNC(=O)c1ccc(Nc2ncc(C(F)(F)F)c(NCc3nccnc3N(C)S(C)(=O)=O)n2)cc1 [defactinib]
Summary of the method: as §1

[6] = compound: CNc1nc(-c2ccc3c(N)n[nH]c3c2)cc(N2C[C@@H](C(=O)NC3CCCCC3)CC[C@H]2C)n1
Summary of the method: as §1

alisertib = compound: COc1cc(Nc2ncc3c(n2)-c2ccc(Cl)cc2C(c2c(F)cccc2OC)=NC3)ccc1C(=O)O [alisertib]
Summary of the method: as §1

[7] = compound: COc1cc2nc(-c3cc(F)ccc3O)nc(N[C@@H]3CNC[C@H]3C(C)(C)O)c2cc1OC
Summary of the method: as §1

gefitinib = compound: COc1cc2ncnc(Nc3ccc(F)c(Cl)c3)c2cc1OCCCN1CCOCC1 [gefitinib]
Summary of the method: as §1

[8] = compound: CC[C@@H]1C(=O)N(C)c2cnc(Nc3ccc(C(=O)NC4CCN(C)CC4)cc3OC)nc2N1C1CCCC1
Summary of the method: as §1

encorafenib = compound: COC(=O)N[C@@H](C)CNc1nccc(-c2cn(C(C)C)nc2-c2cc(Cl)cc(NS(C)(=O)=O)c2F)n1 [encorafenib]
Summary of the method: as §1

[9] = compound: COC(=O)[C@H](CCSC)NC(=O)C1=C(C=C(C=C1)NC[C@H](CS)N)C2=CC=CC=C2
Summary of the method: as §1

Measured: log2 fold change

E4F1 (UniProt Q66K89)
inactive: vemurafenib 0.031 | [1] 0.064 | barasertib -0.239 | volasertib -0.046 | [2] -0.006 | [3] -0.097 | [4] 0.03 | saracatinib 0.023 | sotrastaurin 0.062 | alvocidib -0.071 | Tubastatin A -0.071 | [5] 0.264 | defactinib -0.117 | [6] 0.012 | alisertib 0.123 | [7] 0.019 | gefitinib -0.076

DPY19L4 (UniProt Q7Z388)
inactive: vemurafenib 0.038 | barasertib 0.152 | [8] 0.334 | [2] -0.098 | [3] 0.037 | [4] -0.02 | saracatinib -0.029 | sotrastaurin -0.056 | alvocidib -0.024 | Tubastatin A 0.003 | [5] -0.044 | defactinib -0.058 | [6] -0.137 | encorafenib -0.008 | [9] -0.097 | alisertib 0.072 | gefitinib -0.037

ECPAS (UniProt Q5VYK3)
inactive: vemurafenib 0.002 | [1] 0.007 | barasertib 0.031 | [8] -0.028 | volasertib -0.049 | [2] 0.022 | [3] 0.024 | [4] -0.052 | saracatinib 0.002 | sotrastaurin 0.026 | alvocidib 0.019 | Tubastatin A 0.012 | [5] 0.014 | defactinib 0.003 | [6] -0.013 | encorafenib 0.012 | [9] -0.039 | alisertib 0.004 | [7] 0.006 | gefitinib -0.004

EFR3A (UniProt Q14156)
inactive: vemurafenib -0.002 | [1] -0.012 | barasertib 0.354 | [8] -0.25 | volasertib 0.007 | [2] 0.116 | [3] -0.136 | [4] 0.035 | saracatinib 0.072 | alvocidib -0.01 | Tubastatin A -0.018 | [5] 0.031 | defactinib 0.005 | [6] -0.12 | encorafenib 0.054 | [9] 0.035 | alisertib 0.061 | [7] 0.01 | gefitinib -0.066

2 neighbouring records out of the list so far:
E4F1 (UniProt Q66K89)
inactive: vemurafenib 0.031 | [1] 0.064 | barasertib -0.239 | volasertib -0.046 | [2] -0.006 | [3] -0.097 | [4] 0.03 | saracatinib 0.023 | sotrastaurin 0.062 | alvocidib -0.071 | Tubastatin A -0.071 | [5] 0.264 | defactinib -0.117 | [6] 0.012 | alisertib 0.123 | [7] 0.019 | gefitinib -0.076

DPY19L4 (UniProt Q7Z388)
inactive: vemurafenib 0.038 | barasertib 0.152 | [8] 0.334 | [2] -0.098 | [3] 0.037 | [4] -0.02 | saracatinib -0.029 | sotrastaurin -0.056 | alvocidib -0.024 | Tubastatin A 0.003 | [5] -0.044 | defactinib -0.058 | [6] -0.137 | encorafenib -0.008 | [9] -0.097 | alisertib 0.072 | gefitinib -0.037

(further entries)

DYRK1A isoform 2 (UniProt Q13627)
inactive: barasertib 0.006 | [2] 0.308 | [3] 0.085 | [4] 0.221 | sotrastaurin 0.033 | alvocidib 0.225 | Tubastatin A 0.023 | [5] 0.148

EGFL7 (UniProt Q9UHF1)
inactive: vemurafenib 0.092 | defactinib -0.094

DUSP19 (UniProt Q8WTR2)
inactive: [1] 0.07 | barasertib 0.068 | volasertib 0.206 | [2] -0.06 | [3] -0.556 | [4] 0.303 | sotrastaurin 0.039 | alvocidib -0.066 | Tubastatin A -0.029 | [5] -0.039 | alisertib -0.143 | [7] 0.038 | gefitinib 0.272

EEF2KMT (UniProt Q96G04)
inactive: vemurafenib -0.1 | [8] -0.002 | [2] 0.028 | [3] 0.07 | [4] -0.152 | saracatinib -0.058 | sotrastaurin 0.004 | alvocidib 0.047 | Tubastatin A -0.121 | [5] 0.012 | defactinib 0.031 | [6] 0.091 | encorafenib -0.054 | [9] -0.012 | alisertib -0.073 | gefitinib 0.209

DTX2 (UniProt Q86UW9)
inactive: [1] 0 | barasertib -0.012 | volasertib 0.055 | [3] -0.04 | [4] 0.036 | saracatinib -0.178 | sotrastaurin -0.004 | alvocidib 0.152 | [5] -0.004 | [6] 0.035 | alisertib 0.061 | [7] -0.093 | gefitinib 0.042

DVL1 (UniProt O14640)
inactive: vemurafenib 0.109 | [8] -0.009 | defactinib -0.142 | encorafenib 0.164 | [9] 0.088

DUSP12 (UniProt V9GYV5)
inactive: [3] 0.04 | [4] -0.299 | alvocidib 0.019

DRAM2 (UniProt Q6UX65)
inactive: [1] 0.023 | barasertib 0.098 | volasertib -0.053 | [3] -0.217 | [4] 0.168 | sotrastaurin -0.026 | alvocidib -0.003 | alisertib -0.034 | [7] 0.032 | gefitinib -0.037

DPYSL3 isoform 2 (UniProt Q14195)
inactive: [8] 0.106 | sotrastaurin -0.115 | encorafenib -0.184 | [9] 0.208

DPM3 isoform 2 (UniProt Q9P2X0)
inactive: [1] -0.043 | barasertib 0.122 | volasertib 0.019 | [2] 0.017 | [3] 0 | [4] -0.083 | sotrastaurin -0.02 | alvocidib 0.088 | Tubastatin A 0.046 | [5] 0.062 | alisertib 0.028 | [7] -0.053 | gefitinib -0.071

DUT (UniProt H0YMP1)
inactive: [1] -0.338 | barasertib 0.162 | volasertib 0.03 | [7] -0.021

EHHADH (UniProt Q08426)
inactive: [1] 0.082 | barasertib -0.066 | [8] 0.117 | volasertib -0.108 | [2] -0.037 | [3] 0.055 | [4] -0.037 | saracatinib 0.091 | sotrastaurin -0.044 | alvocidib 0.013 | Tubastatin A 0.039 | [5] -0.024 | [6] 0.101 | encorafenib 0.035 | [9] -0.426 | alisertib 0.065 | [7] -0.005 | gefitinib 0.012

ECM1 isoform 2 (UniProt Q16610)
inactive: [2] -0.016 | Tubastatin A -0.054

DTL (UniProt Q9NZJ0)
inactive: vemurafenib -0.007 | barasertib 0.044 | [2] 0.02 | [3] 0.065 | [4] -0.034 | saracatinib -0.1 | sotrastaurin -0.03 | alvocidib -0.008 | Tubastatin A -0.072 | [5] -0.003 | defactinib 0.071 | [6] -0.092 | alisertib -0.038 | gefitinib 0.043

DSTYK (UniProt Q6XUX3)
inactive: [2] -0.424 | [3] 0.19 | [4] 0.016 | sotrastaurin 0.135 | alvocidib -0.048 | Tubastatin A -0.237 | [5] 0.345 | alisertib -0.029 | gefitinib -0.017

DUSP13 isoform 4 (UniProt Q9UII6)
inactive: [5] -0.045

DTWD2 (UniProt Q8NBA8)
inactive: [1] 0.001 | barasertib 0.008 | volasertib 0.016 | [2] 0.003 | [3] -0.108 | [4] 0.01 | sotrastaurin 0.028 | alvocidib -0.03 | Tubastatin A -0.078 | [5] 0.026 | alisertib -0.025 | [7] 0.069 | gefitinib 0.082

DYNC2LI1 (UniProt Q8TCX1)
inactive: vemurafenib 0.075 | barasertib 0.039 | [2] 0.098 | [3] -0.003 | [4] 0.055 | saracatinib -0.037 | sotrastaurin 0.005 | alvocidib -0.022 | Tubastatin A 0.057 | defactinib -0.006 | [6] -0.016 | alisertib -0.049 | gefitinib 0.028

EEF1AKMT1 (UniProt Q8WVE0)
inactive: [1] 0.088 | barasertib 0.114 | [8] 0.233 | volasertib -0.021 | [2] -0.013 | saracatinib 0.001 | sotrastaurin -0.023 | Tubastatin A -0.259 | [5] -0.06 | [6] 0.119 | encorafenib -0.109 | [9] 0.011 | alisertib -0.052 | [7] 0.098 | gefitinib 0.13

DSG3 (UniProt P32926)
inactive: barasertib -0.129 | [2] -0.05 | [3] -0.086 | [4] -0.19 | alvocidib -0.098 | Tubastatin A 0.245

DZIP3 (UniProt Q86Y13)
inactive: [5] -0.137

DYNLT3 (UniProt P51808)
inactive: [1] 0.252 | volasertib 0.153 | [3] -0.125 | [4] -0.013 | sotrastaurin 0.023 | alvocidib 0.024 | [5] 0.073 | alisertib 0 | [7] 0.356 | gefitinib 0.068

EEPD1 (UniProt Q7L9B9)
inactive: sotrastaurin 0.087

EFCAB7 (UniProt A8K855)
inactive: [2] 0.004 | Tubastatin A 0.137
